Experimental data: patent US8158790B2, “Cyclic amine compound” (Daiichi Sankyo Company, Limited, priority 2006, dated 2012)
pIC50: −log10 of the molar value. Structures can show the parent of a compound that is named as a salt. Some results were stated once for a whole list of compounds, not compound by compound.

biological target: T1, human renin (Homo sapiens, UniProt P00797); assay: Renin inhibitory activity test, Method 2 (fluorescence-labeled synthetic renin substrate); type: biochemical; details: concentration inhibiting 50% of angiotensin I generation, incubation at 37° C. for 90 minutes
T1 construct: made in house; host or cells: 293T cells, transient expression; the conditioned medium was used unpurified and treated with trypsin
T1 sequence (P00797 67-406): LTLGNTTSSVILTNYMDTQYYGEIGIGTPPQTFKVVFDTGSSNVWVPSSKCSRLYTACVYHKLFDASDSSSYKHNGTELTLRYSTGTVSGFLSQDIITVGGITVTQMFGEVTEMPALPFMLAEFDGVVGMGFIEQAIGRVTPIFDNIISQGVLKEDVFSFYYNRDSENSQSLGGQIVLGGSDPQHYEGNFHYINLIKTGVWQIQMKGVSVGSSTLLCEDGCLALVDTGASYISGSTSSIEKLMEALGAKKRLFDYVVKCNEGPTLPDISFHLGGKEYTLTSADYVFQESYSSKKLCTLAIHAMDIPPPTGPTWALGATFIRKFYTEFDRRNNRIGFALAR

pIC50, ≥ 7.00:
C[C@H](C[C@H](O)[C@@H](N)CN1CC(=O)N(c2cc(F)ccc2Cl)CC1(C)C)C(=O)NCC(C)(C)C [Example 97, (2R,4S,5S)-5-Amino-6-[4-(2-chloro-5-fluorophenyl)-2,2-dimethyl-5-oxopiperazin-1-yl]-4-hydroxy-2-methylhexanoic acid (2,2-dimethylpropyl)amide hemifumarate]
Cc1ccc(C)c(N2CC(C)(C)N(C[C@H](N)[C@@H](O)C[C@H](C(=O)NCC(C)C)C(C)C)CC2=O)c1 [Example 74, (2S,4S,5S)-5-Amino-6-[2,2-dimethyl-4-(2,5-dimethylphenyl)-5-oxopiperazin-1-yl]-4-hydroxy-2-isopropylhexanoic acid isobutylamide hemifumarate]
Cc1ccc(F)cc1N1CC(C)(C)N(C[C@H](N)[C@@H](O)C[C@H](C(=O)NCC(C)(C)O)C(C)C)CC1=O [Example 73, (2S,4S,5S)-5-Amino-6-[2,2-dimethyl-4-(5-fluoro-2-methylphenyl)-5-oxopiperazin-1-yl]-4-hydroxy-2-isopropylhexanoic acid (2-hydroxy-2-methylpropyl)amide hemifumarate]
COCCCNC(=O)[C@@H](C[C@H](O)[C@@H](N)CN1CC(=O)N(c2ccccc2Cl)CC1(C)C)C(C)C [Example 34, (2S,4S,5S)-5-Amino-6-[4-(2-chlorophenyl)-2,2-dimethyl-5-oxopiperazin-1-yl]-4-hydroxy-2-isopropylhexanoic acid (3-methoxypropyl)amide hemifumarate]
C[C@H](C[C@H](O)[C@@H](N)CN1CC(=O)N(c2cc(F)ccc2F)CC1(C)C)C(=O)NCC(C)(C)C [Example 92, (2R,4S,5S)-5-Amino-6-[4-(2,5-difluorophenyl)-2,2-dimethyl-5-oxopiperazin-1-yl]-4-hydroxy-2-methylhexanoic acid (2,2-dimethylpropyl)amide hemifumarate]
CC(C)[C@H](C[C@H](O)[C@@H](N)CN1CC(=O)N(c2ccccc2Cl)CC1(C)C)C(=O)Nc1ccncc1 [Example 46, (2S,4S,5S)-5-Amino-6-[4-(2-chlorophenyl)-2,2-dimethyl-5-oxopiperazin-1-yl]-4-hydroxy-2-isopropylhexanoic acid (4-pyridyl)amide fumarate]
Cc1cc(F)ccc1N1CC(C)(C)N(C[C@H](N)[C@@H](O)C[C@H](C(=O)NCC(C)C)C(C)C)CC1=O [Example 69, (2S,4S,5S)-5-Amino-6-[2,2-dimethyl-4-(4-fluoro-2-methylphenyl)-5-oxopiperazin-1-yl]-4-hydroxy-2-isopropylhexanoic acid isobutylamide hemifumarate]
CC[C@H](C[C@H](O)[C@@H](N)CN1CC(=O)N(c2ccccc2C)CC1(C)C)C(=O)NCC(C)(C)C [Example 110, (2R,4S,5S)-5-Amino-6-[2,2-dimethyl-4-(2-methylphenyl)-5-oxopiperazin-1-yl]-2-ethyl-4-hydroxyhexanoic acid (2,2-dimethylpropyl)amide hemifumarate]
Cc1c(F)cccc1N1CC(C)(C)N(C[C@H](N)[C@@H](O)C[C@@H](C)C(=O)NCC(C)(C)C)CC1=O [Example 99, (2R,4S,5S)-5-Amino-6-[2,2-dimethyl-4-(3-fluoro-2-methylphenyl)-5-oxopiperazin-1-yl]-4-hydroxy-2-methylhexanoic acid (2,2-dimethylpropyl)amide hemifumarate]
CCC[C@H](C[C@H](O)[C@@H](N)CN1CC(=O)N(c2cc(F)ccc2Cl)CC1(C)C)C(=O)NCC(C)(C)C [Example 119, (2R,4S,5S)-5-Amino-6-[4-(2-chloro-5-fluorophenyl)-2,2-dimethyl-5-oxopiperazin-1-yl]-4-hydroxy-2-propylhexanoic acid (2,2-dimethylpropyl)amide hemifumarate]
CC(C)[C@H](C[C@H](O)[C@@H](N)CN1CC(=O)N(c2ccccc2Cl)CC1(C)C)C(=O)NC1CCCC1 [Example 3, (2S,4S,5S)-5-Amino-6-[4-(2-chlorophenyl)-2,2-dimethyl-5-oxopiperazin-1-yl]-4-hydroxy-2-isopropylhexanoic acid cyclopentylamide hemifumarate]
CC[C@H](C[C@H](O)[C@@H](N)CN1CC(=O)N(c2cc(F)ccc2Cl)CC1(C)C)C(=O)NCC(C)(C)C [Example 112, (2R,4S,5S)-5-Amino-6-[4-(2-chloro-5-fluorophenyl)-2,2-dimethyl-5-oxopiperazin-1-yl]-2-ethyl-4-hydroxyhexanoic acid (2,2-dimethylpropyl)amide hemifumarate]
COc1ccc(Cl)cc1N1CC(C)(C)N(C[C@H](N)[C@@H](O)C[C@H](C(=O)NCC(C)(C)C(N)=O)C(C)C)CC1=O [Example 28, (2S,4S,5S)-5-Amino-6-[4-(5-chloro-2-methoxyphenyl)-2,2-dimethyl-5-oxopiperazin-1-yl]-4-hydroxy-2-isopropylhexanoic acid (2-carbamoyl-2-methylpropyl)amide fumarate]
CC(C)[C@H](C[C@H](O)[C@@H](N)CN1CC(=O)N(c2ccccc2Cl)CC1(C)C)C(=O)N[C@H](CO)C(C)C [Example 9, (2S,4S,5S)-5-Amino-6-[4-(2-chlorophenyl)-2,2-dimethyl-5-oxopiperazin-1-yl]-4-hydroxy-2-isopropylhexanoic acid [(S)-1-hydroxymethyl-2-methylpropyl]amide fumarate]
Cc1ccc(F)cc1N1CC(C)(C)N(C[C@H](N)[C@@H](O)C[C@H](C(=O)NCC(C)(C)C)C(C)C)CC1=O [Example 70, (2S,4S,5S)-5-Amino-6-[2,2-dimethyl-4-(5-fluoro-2-methylphenyl)-5-oxopiperazin-1-yl]-4-hydroxy-2-isopropylhexanoic acid (2,2-dimethylpropyl)amide hemifumarate]
COCCOc1ccccc1N1CC(C)(C)N(C[C@H](N)[C@@H](O)C[C@H](C(=O)NCC(C)(C)C(N)=O)C(C)C)CC1=O [Example 11, (2S,4S,5S)-5-Amino-4-hydroxy-2-isopropyl-6-{4-[2-(2-methoxyethoxy)phenyl]-2,2-dimethyl-5-oxopiperazin-1-yl}hexanoic acid (2-carbamoyl-2-methylpropyl)amide hemifumarate]
CC(C)CNC(=O)[C@H](C)C[C@H](O)[C@@H](N)CN1CC(=O)N(c2cc(F)ccc2Cl)CC1(C)C [Example 98, (2R,4S,5S)-5-Amino-6-[4-(2-chloro-5-fluorophenyl)-2,2-dimethyl-5-oxopiperazin-1-yl]-4-hydroxy-2-methylhexanoic acid isobutylamide hemifumarate]
CCCCNC(=O)[C@@H](C[C@H](O)[C@@H](N)CN1CC(=O)N(c2cccc(F)c2)CC1(C)C)C(C)C [Example 49, (2S,4S,5S)-5-Amino-6-[4-(3-fluorophenyl)-2,2-dimethyl-5-oxopiperazin-1-yl]-4-hydroxy-2-isopropylhexanoic acid butylamide fumarate]
CC(C)[C@H](C[C@H](O)[C@@H](N)CN1CC(=O)N(c2cc(F)ccc2Cl)CC1(C)C)C(=O)Nc1ccc(F)cc1 [Example 66, (2S,4S,5S)-5-Amino-6-[4-(2-chloro-5-fluorophenyl)-2,2-dimethyl-5-oxopiperazin-1-yl]-4-hydroxy-2-isopropylhexanoic acid (4-fluorophenyl)amide hemifumarate]
C[C@H](C[C@H](O)[C@@H](N)CN1CC(=O)N(c2ccccc2)CC1(C)C)C(=O)NCC(C)(C)C [Example 84, (2R,4S,5S)-5-Amino-6-(2,2-dimethyl-5-oxo-4-phenylpiperazin-1-yl)-4-hydroxy-2-methylhexanoic acid (2,2-dimethylpropyl)amide hemifumarate]
CCCCNC(=O)[C@@H](C[C@H](O)[C@@H](N)CN1CC(=O)N(c2ccccc2F)CC1(C)C)C(C)C [Example 48, (2S,4S,5S)-5-Amino-6-[4-(2-fluorophenyl)-2,2-dimethyl-5-oxopiperazin-1-yl]-4-hydroxy-2-isopropylhexanoic acid butylamide fumarate]
C[C@H](C[C@H](O)[C@@H](N)CN1CC(=O)N(c2cccc(F)c2F)CC1(C)C)C(=O)NC1CCCC1 [Example 90, (2R,4S,5S)-5-Amino-6-[4-(2,3-difluorophenyl)-2,2-dimethyl-5-oxopiperazin-1-yl]-4-hydroxy-2-methylhexanoic acid cyclopentylamide hemifumarate]
CC(C)[C@H](C[C@H](O)[C@@H](N)CN1CC(=O)N(c2ccccc2Cl)CC1(C)C)C(=O)Nc1ccccc1 [Example 42, (2S,4S,5S)-5-Amino-6-[4-(2-chlorophenyl)-2,2-dimethyl-5-oxopiperazin-1-yl]-4-hydroxy-2-isopropylhexanoic acid phenylamide hemifumarate]
Cc1ccc(F)cc1N1CC(C)(C)N(C[C@H](N)[C@@H](O)C[C@H](C(=O)NCC(C)C)C(C)C)CC1=O [Example 71, (2S,4S,5S)-5-Amino-6-[2,2-dimethyl-4-(5-fluoro-2-methylphenyl)-5-oxopiperazin-1-yl]-4-hydroxy-2-isopropylhexanoic acid isobutylamide hemifumarate]
CC[C@H](C)CNC(=O)[C@H](C)C[C@H](O)[C@@H](N)CN1CC(=O)N(c2ccccc2Cl)CC1(C)C [Example 80, (2R,4S,5S)-5-Amino-6-[4-(2-chlorophenyl)-2,2-dimethyl-5-oxopiperazin-1-yl]-4-hydroxy-2-methylhexanoic acid [(S)-2-methylbutyl]amide hemifumarate]
